Test results taken from paper PMC3621835.
Results are given in words; binding and its absence hold for the method and conditions named. For some assays here: In cells and extracts the contact can be indirect. Some results given as binding are weak or reduced against the parent protein; the word gives no strength. Values belong to the binder of their own block, whether it stands above or below them.

Protein sequences, listed by entry. Tags and fused reporters are not part of them. Residues count along the entry.
UniProt P15253, residues 18-418: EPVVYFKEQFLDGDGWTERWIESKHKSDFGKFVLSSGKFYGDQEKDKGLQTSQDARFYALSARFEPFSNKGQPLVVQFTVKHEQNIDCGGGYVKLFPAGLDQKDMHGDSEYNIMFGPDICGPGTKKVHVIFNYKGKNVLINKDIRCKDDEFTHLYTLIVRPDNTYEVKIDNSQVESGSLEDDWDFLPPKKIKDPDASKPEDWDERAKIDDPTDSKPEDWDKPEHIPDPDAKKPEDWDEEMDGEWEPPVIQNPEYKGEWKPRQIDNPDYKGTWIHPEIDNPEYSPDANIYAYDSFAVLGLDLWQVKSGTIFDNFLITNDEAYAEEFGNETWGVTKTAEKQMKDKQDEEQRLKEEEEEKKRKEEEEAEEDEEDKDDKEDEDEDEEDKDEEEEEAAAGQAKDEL

Assays:
[1] = biological target: recombinant rabbit calreticulin (rabbit) (UniProt P15253); test: ELISA; recombinant calreticulin coated (5–10 µg/ml, polyvinylchloride 96-well plates); biotinylated peptides at different concentrations in PBS-T with 1% BSA, 1 mM CaCl2, 1 mM MgCl2, 1 mM MnCl2, 1 h, room temperature; HRP-coupled streptavidin; both purified
[2] = biological target: amyloid precursor protein (endogenous, mouse brain) (mouse (endogenous in brain synaptosomal fraction and brain homogenate)) (UniProt P12023); test: pull-down; competition: calreticulin peptide added to GST/C-domain and a detergent extract of mouse brain homogenate; glutathione-agarose; Western blot with APP antibody A8967; only the binder purified

binding [1]: no binding
B1: synthetic biotinylated APP-β peptide comprising the β-secretase cleavage site of APP (peptide)
peptide: TNIKTEEISEVKMDAEFGHDSGFEVRHQKC
modifications: biotin on the N-terminus (biotin-TNIK...HQKC-OH)

binding [2]: binds
B2: calreticulin peptide comprising amino acids 330–344 (peptide)
peptide: FLITNDEAYAEEFGN
